Tests used:
[1] = test system: E. coli; assay: Bacterial growth inhibition by OD600 absorbance, E. coli; type: cell-based, E. coli (DH5-alpha); conditions: peptide 10 μM, 24 hours at 37° C., OD 600 nm
Procedure: (§1) Antimicrobial activity of antimicrobial peptides was tested against the agricultural microbial pests A. tumefaciens, E. amylovora, E. coli, and X. citri, using OD absorbance measurement to detect bacterial growth.
(§2) Antimicrobial peptides were synthesized using solid phase peptide synthesis method and resuspended in 10% DMSO to a 1 mM stock concentration. The stock solution was aliquoted in cryovials and stored at −80° C.
(§3) An aliquot of 198 μl of the bacterial culture was added to each well in a 96-well plate and 2 μl of a 1 mM peptide stock solution was added to each well, for a final treatment concentration of 10 μM of a given peptide. Media only wells were included to control for contamination. The positive controls were 50 μg/ml oxytetracycline hydrochloride and 500 μg/ml streptomycin sulfate. A 0.1% DMSO treatment was included as a negative control.
(§4) An initial absorbance reading of the bacterial suspensions was taken at 600 nm. Then, the bacteria were grown in an incubator at 30° C. (A. tumefaciens, E. amylovora, X. citri) or 37° C. (E. coli) for 24 hours, after which the final absorbance reading was measured. Using the initial and final absorbance reading compared to negative and positive controls, the percent inhibition of the bacterial strain by given peptide treatment was determined.

[2] = test system: X. citri; assay: Bacterial growth inhibition by OD600 absorbance, X. citri; type: cell-based, X. citri subsp. citri (ATCC 49118); conditions: peptide 10 μM, 24 hours at 30° C., OD 600 nm
Procedure: as §1, §2, §3, §4

[3] = test system: A. tumefaciens; conditions: 24 h, 10 μM
[4] = test system: E. amylovora; conditions: 24 h, 10 μM
[5] = test system: L. crescens; conditions: 10 μM

What does the source list for `CC[C@H](C)[C@H](NC(=O)[C@H](Cc1ccccc1)NC(=O)[C@H](CC(C)C)NC(=O)[C@H](CCCNC(=N)N)NC(=O)[C@@H](NC(=O)[C@H](CCCCN)NC(=O)[C@@H](NC(=O)[C@H](CC(C)C)NC(=O)[C@@H](N)C(C)C)[C@@H](C)CC)[C@@H](C)O)C(=O)N[C@@H](CCCCN)C(=O)N[C@@H](CCCNC(=N)N)C(=O)N[C@@H](CCCCN)C(=O)O` [compound 127]?
growth inhibition, E. coli [1]: <90%; growth inhibition, X. citri [2]: <90%; growth inhibition, A. tumefaciens [3]: <90%; growth inhibition, E. amylovora [4]: <90%

What does the source list for `CC[C@H](C)[C@H](NC(=O)[C@H](CC(C)C)NC(=O)[C@@H]1CCCN1C(=O)[C@H](CCCCN)NC(=O)[C@H](C)NC(=O)[C@@H](NC(=O)[C@@H](NC(=O)[C@@H](NC(=O)[C@@H](NC(=O)[C@H](CCCCN)NC(=O)[C@H](CCCCN)NC(=O)[C@H](C)NC(=O)[C@H](C)NC(=O)[C@H](CO)NC(=O)[C@@H](NC(=O)[C@H](CC(C)C)NC(=O)[C@H](CCCCN)NC(=O)[C@H](CCCCN)NC(=O)[C@@H](NC(=O)[C@H](Cc1ccccc1)NC(=O)[C@H](CO)NC(=O)[C@H](CCCCN)NC(=O)[C@H](Cc1c[nH]c2ccccc12)NC(=O)[C@@H](N)CCCCN)[C@@H](C)CC)[C@@H](C)O)C(C)C)C(C)C)[C@@H](C)O)[C@@H](C)O)C(=O)N[C@@H](CO)C(=O)N[C@@H](CO)C(=O)O` [compound 27]?
growth inhibition, E. coli [1]: 98.53%; growth inhibition, X. citri [2]: 100.00%; growth inhibition, A. tumefaciens [3]: 100.00%; growth inhibition, E. amylovora [4]: 100.00%; growth inhibition, L. crescens [5]: <90%

— patent US20250381242A1 (INVAIO SCIENCES, INC., priority 2024, published 2025)
